Data as given in PubChem BioAssay AID1259254 (NCATS, 2017).

Test: 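Genome-wide screen for genes that prevent DNA re-replication in cancer cells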 (primary screen)
Cells: human HCT116 colorectal cancer cells
Knock-down reagent: single siRNA against human genes
Timing: 3 days
Measurement: 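Nuclei stained with Hoechst and imaged; cell-cycle phase assigned by DNA content; G2 share scaled per plate, non-targeting siRNA 0%, GMNN siRNA 100%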
Reading the numbers: G2 robust z-score and G2 cells, % of GMNN control: higher = more G2 cells, more excess DNA replication
Active means: 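Active siRNAs have a G2 robust z of 5 or more median absolute deviations over the median, which in these data means about 38% or higher of GMNN control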
In all, the deposit lists about 59,000 reagents; below is an unselected part. About 1,550 of all reagents (2.6%) were called active. 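G2 share is only a proxy for re-replication; each gene was hit by three separate siRNAs, and active genes were retested.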 The numbers tell different reagents against one gene apart. Not all columns of the deposit are shown. Not given: the amount of reagent.

With SPRED3 (sprouty related EVH1 domain containing 3) #1, what does the deposit list?
G2 robust z-score: -0.872; G2 cells, % of GMNN control: -3.17; outcome: inactive

What did the screen give for SPRED3 (sprouty related EVH1 domain containing 3) #2?
G2 robust z-score: -0.62; G2 cells, % of GMNN control: -1.4; outcome: inactive

With SPRED3 (sprouty related EVH1 domain containing 3) #3, how do the results read?
G2 robust z-score: 0.226; G2 cells, % of GMNN control: 4.56; outcome: inactive

For PAEP (progestagen associated endometrial protein) #1, what does the deposit list?
G2 robust z-score: 3.79; G2 cells, % of GMNN control: 29.7; outcome: inactive

How did the screen score PAEP (progestagen associated endometrial protein) #2?
G2 robust z-score: -0.691; G2 cells, % of GMNN control: -1.9; outcome: inactive

Which result is listed for PAEP (progestagen associated endometrial protein) #3?
G2 robust z-score: 0.961; G2 cells, % of GMNN control: 9.73; outcome: inactive

Which result is listed for CORO1B (coronin 1B) #1?
G2 robust z-score: 6.49; G2 cells, % of GMNN control: 48.7; outcome: active

Which result is listed for CORO1B (coronin 1B) #2?
G2 robust z-score: 0.429; G2 cells, % of GMNN control: 5.99; outcome: inactive

With CORO1B (coronin 1B) #3, what was measured?
G2 robust z-score: 1.01; G2 cells, % of GMNN control: 10.1; outcome: inactive

With MRPS24 (mitochondrial ribosomal protein S24) #1, what does the deposit list?
G2 robust z-score: -1.02; G2 cells, % of GMNN control: -4.19; outcome: inactive

For MRPS24 (mitochondrial ribosomal protein S24) #2, how do the results read?
G2 robust z-score: 3.15; G2 cells, % of GMNN control: 25.1; outcome: inactive

What is on record for MRPS24 (mitochondrial ribosomal protein S24) #3?
G2 robust z-score: -0.0281; G2 cells, % of GMNN control: 2.77; outcome: inactive

Sorted by “G2 robust z-score” (lowest first): some entries from above.
PAEP (progestagen associated endometrial protein) #3: G2 robust z-score = 0.961; G2 cells, % of GMNN control = 9.73; outcome = inactive
CORO1B (coronin 1B) #1: G2 robust z-score = 6.49; G2 cells, % of GMNN control = 48.7; outcome = active
